Experimental data as given in US20050130935A1, “Combination of a beta-2-adrenoceptor agonists and an aminosugars and their use for the treatment immunomodulatory disorders” (priority 2002, published 2005).
At least one compound was matched to its structure with a doubt left.

Tests used:
[1] = test system: arachidonic acid induced ear oedema; assay: arachidonic acid induced ear inflammation test in the mouse (Example 177); assay type: in vivo; details: i.p., all doses tested
Method: The objective of this study is to assess the effect of three doses of two chemical complexes of the invention systemically administered in the arachidonic acid induced ear inflammation test in the mouse, a commonly employed method for screening and evaluation of antiinflammatory drugs. Dexamethasone was employed as reference compound.
The study was performed in female BALB/ca mice from M & B A/S, DK-8680 Ry. At start of the acclimatisation period the mice were in the weight range of 20 g (+/−5 g).
On the day of arrival the animals were randomly allocated to groups of 8 mice.
The test substances and reference compound were administered intraperitoneally in volumes of 20 ml per kg body weight 30 minutes before application of arachidonic acid to the ear.
All groups were treated with 20 μl arachidonic acid, 100 mg/ml in acetone, on the right ear. […]
Mean weights and standard deviations were calculated. Relative ear oedema was assessed as the weight difference between right and left ear of each mouse expressed as percent of the left ear. Percent inhibition of the relative ear oedema compared with the vehicle treated groups was calculated for the test substance and reference compound treated groups.
All visible signs of ill health and any behavioural changes were recorded daily during the study. Any deviation from normal was recorded with respect to time of onset, duration and intensity. […]

[2] = test system: muscular pain; assay: case report, with muscular pain (Example 179); assay type: in vivo, human; details: treatment for periods during 6 years
Method: They were then treated with the complex of the invention disclosed in example 56 (1500 mg/day) instead of glucosamine sulfate. […] After two weeks they were symptom free for the first time in 6 years, which persisted for another 6 weeks of treatment, where after the treatment was terminated.

Row | SMILES | inhibition of ear oedema, in words [1] | success of earlier analgesic treatment of muscular pain [2]
1 | C[C@@H]1C[C@H]2[C@@H]3CCC4=CC(=O)C=C[C@]4(C)[C@@]3(F)[C@@H](O)C[C@]2(C)[C@@]1(O)C(=O)CO [Dexamethasone] | did not inhibit ear oedema | –
2 | Cc1ccc(-c2cc(C(F)(F)F)nn2-c2ccc(S(N)(=O)=O)cc2)cc1 [celecoxib] | – | limited success
